Data taken from ChEMBL document CHEMBL3988442, “University of Dundee, Small-Polar-MMV Screening Library” (2021).

Amino acid sequences for entries named in this document (tags omitted).
UniProt E9BF75, entry or part of it: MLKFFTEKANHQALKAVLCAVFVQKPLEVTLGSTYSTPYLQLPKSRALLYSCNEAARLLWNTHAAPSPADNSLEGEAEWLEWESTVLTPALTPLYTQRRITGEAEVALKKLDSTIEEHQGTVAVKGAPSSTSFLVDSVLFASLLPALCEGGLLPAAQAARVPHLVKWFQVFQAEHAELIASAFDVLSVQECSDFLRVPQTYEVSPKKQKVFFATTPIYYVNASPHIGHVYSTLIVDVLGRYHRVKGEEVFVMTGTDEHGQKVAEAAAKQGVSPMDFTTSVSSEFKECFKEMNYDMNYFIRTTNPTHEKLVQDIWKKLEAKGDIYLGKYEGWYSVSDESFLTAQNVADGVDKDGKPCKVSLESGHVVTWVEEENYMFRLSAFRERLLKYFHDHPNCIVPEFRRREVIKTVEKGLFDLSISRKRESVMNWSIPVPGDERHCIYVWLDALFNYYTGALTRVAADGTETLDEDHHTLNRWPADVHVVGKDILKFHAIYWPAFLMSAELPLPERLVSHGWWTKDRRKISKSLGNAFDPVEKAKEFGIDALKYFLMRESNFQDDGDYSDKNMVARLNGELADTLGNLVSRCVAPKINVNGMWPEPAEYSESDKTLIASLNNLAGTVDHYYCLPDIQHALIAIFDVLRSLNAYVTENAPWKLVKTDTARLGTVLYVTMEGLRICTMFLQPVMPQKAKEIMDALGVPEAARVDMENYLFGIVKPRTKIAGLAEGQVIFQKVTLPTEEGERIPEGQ

Mtb heat-shock: 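Assay on Mycobacterium tuberculosis, filed only as a heat shock assay from Cornell; the read-out is not stated. The concentration is filed as 10 mM, unlikely as a test dose, so the dose is not known. The record gives no direction; compounds that gave an IC50 in retests scored well above the rest, so higher reads as stronger inhibition. Size under these conditions: about 69,000 compounds, about 930 of them at 50% or above in at least one test.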
Mtb growth Cornell: 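Whole-cell assay for inhibitors of Mycobacterium tuberculosis growth, labelled Cornell in the record; the read-out is not stated. The concentration is filed as 10 mM, unlikely as a test dose, so the dose is not known. Higher means stronger inhibition (inferred from two other growth screens of the library). Size under these conditions: about 53,000 compounds, about 900 of them at 50% or above in at least one test.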
LdMetRS: 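Primary screen of methionyl-tRNA synthetase; the read-out is not stated. Target: Methionyl-tRNA synthetase (putative), Leishmania donovani (UniProt E9BF75). The test concentration is not given. The values are filed as inhibition. Of about 68,000 compounds tested this way, about 24 (0.035%) reached 50% or more in at least one test.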

All values are in %. The controls that fix the scale are not given in the record; negative values are as filed. Compounds were drawn at random from those tested, without regard to their results. A dash means the value is not listed here; it may have been measured.

| Compound | Mtb heat-shock | Mtb growth Cornell | LdMetRS |
|---|---|---|---|
| `Cn1c2ccccc2c2ncn(CCN3CCOCC3)c(=O)c21` | -5.05% | -13.9% | 3.523% |
| `CCC(C)(CC(=O)OC)NCc1nc(C)no1` (stereo not drawn) | -145.7% | - | 3.927% |
| `Cc1cnc(N2CC3(CCN(Cc4cccnc4)C3)C2)nc1.O=C(O)C(F)(F)F.O=C(O)C(F)(F)F` | -11.82% | 10.33% | - |
| `COc1ccccc1C1(CNc2ccc(C(=O)N(C)C)cn2)CC1` | 0.3098% | -3.425% | 3.873% |
| `COCCNC(=O)c1nc(NS(=O)(=O)c2ccccc2)sc1C` | 14.38% | 29.56% | 8.924% |
| `CN(C)[C@@H]1CCN(C(=O)CC2CC2)[C@H]1Cc1cnn(C)c1` | - | - | 10.95% |
| `Cc1cc(CN2C[C@@H]3COC[C@]3(CN(C)C)C2)no1` | - | - | 13.8% |
| `O=C(O)C(F)(F)F.[H][C@@]12CN(CC3CC3)C[C@]1([H])[C@@H](OC)CCN2C(=O)c1cc(C)nn1CC` | -20.74% | -20.05% | - |
| `Cc1ccc(NC(=O)c2ccc(=O)n(CC(=O)Nc3nccs3)n2)cc1` | -23.62% | - | 3.753% |
| `Cn1nnc2c1C(COCc1cccnc1)CN(Cc1ccoc1)C2.O=C(O)C(F)(F)F.O=C(O)C(F)(F)F` (stereo not drawn) | -46.31% | 20.07% | - |
| `COc1cccc(S(=O)(=O)NC(=O)COC2CCCCC2)c1` | -13.42% | 5.097% | 12.82% |
| `O[C@@H]1CN(Cc2cc(Cl)cc3cccnc23)C[C@@H]1O` | -38.19% | 5.63% | 9.021% |
| `O[C@@H]1CN(Cc2ccncc2)C[C@H]1Oc1ccccc1` | 5.87% | 23.43% | 14.69% |
| `Cn1c(C2CCCCN2C(=O)CN2CCCC2=O)nc2ccccc21` (stereo not drawn) | -13.52% | - | 9.938% |
| `O=C(O)C(F)(F)F.[H][C@@]12CN(Cc3ccoc3)CCO[C@]1([H])CN(C(=O)Cc1cccs1)C2` | 0.9133% | 23.49% | - |
| `O=C(NCc1cccnc1-n1cncn1)c1ccncc1` | 3.693% | 22.89% | 18.68% |
| `CN1CCC(Cc2cc(N(C)C)ncn2)C1` (stereo not drawn) | 6.583% | 2.45% | 6.032% |
| `CCOc1c(F)cccc1C(=O)N(CC)C(C)c1cccnc1` (stereo not drawn) | -10.81% | - | 6.183% |
| `CN(C)Cc1ccc(NC(=O)c2nccn3ccnc23)cc1` | -3.404% | - | -22.01% |
| `Cc1ccc2c(c1)C1(CCNCC1)CC2NC(C)C.Cl.Cl` (stereo not drawn) | -29.51% | 16.19% | - |
| `Cc1cccc(S(=O)(=O)N2C[C@H]3C[C@H](C(=O)NC4CCC4)[C@@H](C2)O3)c1` | - | - | 18.12% |
| `CCOc1ccccc1C(=O)N1CCn2c(nnc2C(F)(F)F)C1` | 2.807% | 14.15% | 6.793% |
| `Cc1ccc(C(=O)N2CCn3cc(CN4CCCCC4)nc3C2)o1` | - | - | 0% |
| `c1cnc(NC2COC3(CCN(Cc4nccs4)CC3)C2)cn1` (stereo not drawn) | - | - | 5.473% |
| `Cn1nnc2c1C(COCC1CC1)CN(C(=O)Cc1ccccn1)C2` (stereo not drawn) | -14.48% | 9.319% | 6.015% |
| `CC(C)C1CN(C(=O)c2cc(=O)[nH]c(=O)[nH]2)CCCN1CC1CC1` (stereo not drawn) | -17.56% | 10.39% | 6.361% |
| `O=C(Nc1nncs1)C1CSCN1C(=O)C1CCCC1` (stereo not drawn) | -30.41% | 23.83% | 9.747% |
| `CC(=O)N1CCCN(C(=O)NC(C)c2ccc(C)o2)CC1` (stereo not drawn) | 6.523% | 22.69% | 10.86% |
| `COc1ncccc1C(=O)N1CCCC(n2ccnc2C)C1` (stereo not drawn) | -23.47% | - | -0.2208% |
| `CC(C)C(=O)N1CCC2(COCc3cnc(-c4cccnc4)nc32)C1` (stereo not drawn) | 7.44% | 5.451% | 9.302% |
| `[H][C@]12CC[C@]([H])(CN(C(=O)c3cscn3)C1)N(Cc1c(C)noc1C)C2=O` | 9.12% | 20.94% | - |
| `CCCc1ccc(CN2CCN(c3ncccn3)[C@@H]3CS(=O)(=O)C[C@@H]32)o1` | - | - | 9.278% |
| `CN(Cc1ccc(N2CCOCC2)cc1)C(=O)Cn1cccnc1=O` | -18.9% | -30.57% | 26.3% |
| `Cc1ccccc1CS(=O)(=O)CC(=O)NC1CCCCNC1=O` (stereo not drawn) | 8.103% | 4.727% | 9.312% |
| `[H][C@@]12CCN(Cc3nc(C)cs3)C[C@@]1([H])O[C@H](c1noc(C)n1)C2` | -39.12% | -6.754% | - |
| `Cc1ncsc1CN1C[C@@H](OCc2ccncc2)[C@H]2OCCC[C@H]21` | - | - | 9.278% |
| `Cc1cc(NCCN2CCNC2=O)nc2cc3c(cc12)CCC3` | 7.86% | 19.41% | 13.81% |
| `Cn1cnc(S(=O)(=O)N2CC3(CCN(Cc4ccncc4)C3)C2)c1.O=C(O)C(F)(F)F.O=C(O)C(F)(F)F.O=C(O)C(F)(F)F` | 36.02% | -0.8935% | - |
| `COc1ccc(N(c2ccc(OC)cc2)c2ccc(C(=O)O)s2)cc1` | -5.697% | 27.51% | 15.41% |
| `CCn1nc(C)c(NC(=O)CN2CC[C@H](CO)[C@@H](O)C2)c1C` | -3.811% | 22.12% | 20.5% |
| `COCc1ccc(C(=O)N2CCCN(Cc3cscn3)CC2)cc1` | -5.385% | - | 15.3% |
| `Cc1ccc(CN2CCc3c(C(=O)N(C)C)n[nH]c3C2)o1` | 7.988% | - | 10% |
| `CCOc1ccccc1C1CCCN1` (stereo not drawn) | - | - | 9.859% |
| `COC(=O)c1cccc(C(=O)NCc2ccc3c(c2)CCCN3C)c1` | 3.769% | 0.07801% | 16.52% |

3 of the entries, repeated:

Compound	Mtb heat-shock	Mtb growth Cornell	LdMetRS
COc1ccc(N(c2ccc(OC)cc2)c2ccc(C(=O)O)s2)cc1	-5.697%	27.51%	15.41%
Cn1cnc(S(=O)(=O)N2CC3(CCN(Cc4ccncc4)C3)C2)c1.O=C(O)C(F)(F)F.O=C(O)C(F)(F)F.O=C(O)C(F)(F)F	36.02%	-0.8935%	-
CC(=O)N1CCCN(C(=O)NC(C)c2ccc(C)o2)CC1 (stereo not drawn)	6.523%	22.69%	10.86%